Data: the supplement of paper PMC10849652
Some of the results follow.

The chains behind the UniProt entries cited, without tags or fusion partners. Where a name states a change or a piece, a line headed by the entry shows the natural chain unless it says otherwise.
UniProt P49281: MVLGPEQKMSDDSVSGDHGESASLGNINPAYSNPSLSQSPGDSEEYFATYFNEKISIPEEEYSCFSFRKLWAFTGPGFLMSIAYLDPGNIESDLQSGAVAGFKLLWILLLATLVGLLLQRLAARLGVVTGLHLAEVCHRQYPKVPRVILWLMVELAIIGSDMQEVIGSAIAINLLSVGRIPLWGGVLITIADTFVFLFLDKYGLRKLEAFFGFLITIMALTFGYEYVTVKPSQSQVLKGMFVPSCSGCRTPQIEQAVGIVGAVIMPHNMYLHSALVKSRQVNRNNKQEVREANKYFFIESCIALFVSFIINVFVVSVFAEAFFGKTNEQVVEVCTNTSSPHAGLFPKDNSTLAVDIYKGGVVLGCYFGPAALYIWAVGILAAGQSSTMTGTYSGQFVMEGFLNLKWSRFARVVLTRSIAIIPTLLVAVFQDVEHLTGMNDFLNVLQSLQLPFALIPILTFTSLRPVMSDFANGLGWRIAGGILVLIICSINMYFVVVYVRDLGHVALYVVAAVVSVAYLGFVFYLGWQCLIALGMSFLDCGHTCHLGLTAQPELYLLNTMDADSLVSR
UniProt P84101: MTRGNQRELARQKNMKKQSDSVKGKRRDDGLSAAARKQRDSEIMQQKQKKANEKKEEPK
UniProt P36955: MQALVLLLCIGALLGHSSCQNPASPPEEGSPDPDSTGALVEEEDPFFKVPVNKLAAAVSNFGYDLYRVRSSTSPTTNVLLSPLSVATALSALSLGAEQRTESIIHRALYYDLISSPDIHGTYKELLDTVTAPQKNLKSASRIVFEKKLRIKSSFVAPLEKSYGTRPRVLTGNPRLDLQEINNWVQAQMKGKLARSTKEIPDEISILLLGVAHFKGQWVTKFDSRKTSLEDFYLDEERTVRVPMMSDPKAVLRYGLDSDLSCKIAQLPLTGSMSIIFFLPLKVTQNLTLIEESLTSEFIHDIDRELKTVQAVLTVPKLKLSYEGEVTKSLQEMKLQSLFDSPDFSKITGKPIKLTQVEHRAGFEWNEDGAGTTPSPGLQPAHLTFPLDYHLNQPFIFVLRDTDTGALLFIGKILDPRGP
UniProt Q99963: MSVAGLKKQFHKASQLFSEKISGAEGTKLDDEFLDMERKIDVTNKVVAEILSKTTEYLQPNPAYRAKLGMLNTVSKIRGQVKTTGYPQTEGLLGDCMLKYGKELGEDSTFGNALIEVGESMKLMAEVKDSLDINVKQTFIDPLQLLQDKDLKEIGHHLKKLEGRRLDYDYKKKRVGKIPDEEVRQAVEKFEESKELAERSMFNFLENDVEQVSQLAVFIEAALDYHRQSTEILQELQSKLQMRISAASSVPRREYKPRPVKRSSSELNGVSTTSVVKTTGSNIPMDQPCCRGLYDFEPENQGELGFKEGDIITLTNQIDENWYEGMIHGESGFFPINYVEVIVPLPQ
UniProt Q14493, whole entry, looked up: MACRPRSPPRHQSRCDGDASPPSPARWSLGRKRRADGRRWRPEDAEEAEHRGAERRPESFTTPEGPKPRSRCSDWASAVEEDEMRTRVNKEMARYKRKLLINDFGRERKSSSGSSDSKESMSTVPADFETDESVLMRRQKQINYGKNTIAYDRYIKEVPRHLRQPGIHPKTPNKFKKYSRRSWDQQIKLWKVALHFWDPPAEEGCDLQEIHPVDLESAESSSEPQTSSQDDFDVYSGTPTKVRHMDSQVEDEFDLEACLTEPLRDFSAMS
UniProt O75368: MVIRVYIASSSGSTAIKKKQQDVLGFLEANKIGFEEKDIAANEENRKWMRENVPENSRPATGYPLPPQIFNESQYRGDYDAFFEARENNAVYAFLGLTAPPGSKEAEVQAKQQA
UniProt P23246: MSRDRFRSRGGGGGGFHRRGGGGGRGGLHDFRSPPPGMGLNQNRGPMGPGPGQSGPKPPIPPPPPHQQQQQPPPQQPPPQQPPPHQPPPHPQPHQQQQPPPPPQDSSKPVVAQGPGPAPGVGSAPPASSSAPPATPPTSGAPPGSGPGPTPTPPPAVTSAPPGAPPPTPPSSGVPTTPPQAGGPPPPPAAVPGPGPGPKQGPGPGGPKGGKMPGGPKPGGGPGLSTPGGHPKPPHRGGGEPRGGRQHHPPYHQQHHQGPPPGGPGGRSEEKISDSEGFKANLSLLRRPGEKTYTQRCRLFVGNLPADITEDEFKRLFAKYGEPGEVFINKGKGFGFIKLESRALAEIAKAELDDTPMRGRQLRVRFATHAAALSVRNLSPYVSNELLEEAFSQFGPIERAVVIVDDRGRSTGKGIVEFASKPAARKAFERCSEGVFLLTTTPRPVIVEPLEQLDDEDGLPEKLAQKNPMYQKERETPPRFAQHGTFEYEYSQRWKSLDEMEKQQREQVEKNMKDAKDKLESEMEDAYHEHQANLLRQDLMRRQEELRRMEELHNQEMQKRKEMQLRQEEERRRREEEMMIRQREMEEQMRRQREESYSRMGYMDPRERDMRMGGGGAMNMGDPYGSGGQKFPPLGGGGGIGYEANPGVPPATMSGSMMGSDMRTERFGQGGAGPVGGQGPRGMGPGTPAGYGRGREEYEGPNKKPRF
UniProt Q9BYW2: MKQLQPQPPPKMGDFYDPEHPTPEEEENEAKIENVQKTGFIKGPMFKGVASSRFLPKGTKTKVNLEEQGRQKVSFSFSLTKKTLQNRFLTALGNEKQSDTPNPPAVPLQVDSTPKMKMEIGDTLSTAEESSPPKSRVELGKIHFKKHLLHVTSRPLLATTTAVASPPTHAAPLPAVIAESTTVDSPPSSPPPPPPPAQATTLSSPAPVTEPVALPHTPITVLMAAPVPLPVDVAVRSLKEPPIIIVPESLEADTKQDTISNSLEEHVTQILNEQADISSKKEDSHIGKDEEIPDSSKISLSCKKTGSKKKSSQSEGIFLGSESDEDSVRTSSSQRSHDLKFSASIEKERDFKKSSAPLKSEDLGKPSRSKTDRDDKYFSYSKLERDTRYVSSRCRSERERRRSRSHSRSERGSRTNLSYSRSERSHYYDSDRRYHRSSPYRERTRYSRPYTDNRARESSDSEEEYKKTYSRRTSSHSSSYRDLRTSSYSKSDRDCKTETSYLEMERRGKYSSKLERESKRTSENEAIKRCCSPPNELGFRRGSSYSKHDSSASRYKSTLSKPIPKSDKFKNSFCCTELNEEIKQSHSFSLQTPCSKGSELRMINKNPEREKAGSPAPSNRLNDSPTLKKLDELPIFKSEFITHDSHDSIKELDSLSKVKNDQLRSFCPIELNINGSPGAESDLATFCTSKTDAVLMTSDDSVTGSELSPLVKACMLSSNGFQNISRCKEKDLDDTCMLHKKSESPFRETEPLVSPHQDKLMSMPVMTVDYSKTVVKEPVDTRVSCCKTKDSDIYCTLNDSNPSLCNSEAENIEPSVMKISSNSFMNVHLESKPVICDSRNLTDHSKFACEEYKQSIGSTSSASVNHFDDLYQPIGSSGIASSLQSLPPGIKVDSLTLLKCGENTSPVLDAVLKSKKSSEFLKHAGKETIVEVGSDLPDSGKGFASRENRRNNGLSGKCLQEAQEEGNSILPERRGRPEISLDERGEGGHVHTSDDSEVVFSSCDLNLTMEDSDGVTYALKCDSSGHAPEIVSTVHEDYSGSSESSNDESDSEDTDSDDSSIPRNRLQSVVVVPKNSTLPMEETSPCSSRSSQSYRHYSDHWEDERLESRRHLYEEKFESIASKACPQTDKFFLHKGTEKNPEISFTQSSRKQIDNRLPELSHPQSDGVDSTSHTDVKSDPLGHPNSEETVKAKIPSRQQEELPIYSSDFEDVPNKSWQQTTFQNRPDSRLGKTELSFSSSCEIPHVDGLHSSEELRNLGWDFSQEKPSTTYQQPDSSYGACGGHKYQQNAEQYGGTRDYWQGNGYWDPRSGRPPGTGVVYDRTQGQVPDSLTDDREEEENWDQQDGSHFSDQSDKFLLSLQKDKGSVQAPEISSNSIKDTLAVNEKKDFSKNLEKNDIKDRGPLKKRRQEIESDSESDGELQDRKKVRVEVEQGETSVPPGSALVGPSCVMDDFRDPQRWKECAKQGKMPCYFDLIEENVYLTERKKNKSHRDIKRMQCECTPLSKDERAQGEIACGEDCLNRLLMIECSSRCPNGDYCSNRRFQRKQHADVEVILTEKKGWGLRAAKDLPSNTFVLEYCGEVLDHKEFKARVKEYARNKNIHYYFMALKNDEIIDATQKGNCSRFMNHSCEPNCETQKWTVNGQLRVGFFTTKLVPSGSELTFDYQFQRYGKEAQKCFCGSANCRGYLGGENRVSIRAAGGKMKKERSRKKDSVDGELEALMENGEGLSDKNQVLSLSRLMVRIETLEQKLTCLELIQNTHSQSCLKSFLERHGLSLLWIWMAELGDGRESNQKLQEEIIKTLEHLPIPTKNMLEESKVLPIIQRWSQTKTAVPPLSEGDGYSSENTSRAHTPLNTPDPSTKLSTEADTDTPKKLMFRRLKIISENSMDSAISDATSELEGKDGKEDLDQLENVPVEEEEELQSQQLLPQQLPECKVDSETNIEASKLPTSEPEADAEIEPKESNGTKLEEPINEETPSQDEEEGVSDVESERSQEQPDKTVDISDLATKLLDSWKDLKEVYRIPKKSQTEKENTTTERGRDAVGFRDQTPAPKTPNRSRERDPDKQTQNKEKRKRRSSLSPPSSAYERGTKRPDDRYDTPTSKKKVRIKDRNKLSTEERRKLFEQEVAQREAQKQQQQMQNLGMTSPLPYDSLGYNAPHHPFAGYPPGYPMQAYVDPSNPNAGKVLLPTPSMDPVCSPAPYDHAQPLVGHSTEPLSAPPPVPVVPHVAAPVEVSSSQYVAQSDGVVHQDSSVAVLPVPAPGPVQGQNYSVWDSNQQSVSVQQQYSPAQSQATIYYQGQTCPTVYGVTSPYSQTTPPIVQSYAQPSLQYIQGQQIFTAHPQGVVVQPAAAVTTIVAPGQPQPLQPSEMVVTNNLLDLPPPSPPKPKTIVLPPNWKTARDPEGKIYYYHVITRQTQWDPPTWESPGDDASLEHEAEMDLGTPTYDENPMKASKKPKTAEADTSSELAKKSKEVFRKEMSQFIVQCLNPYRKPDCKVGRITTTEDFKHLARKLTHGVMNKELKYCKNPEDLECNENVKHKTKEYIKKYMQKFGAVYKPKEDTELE
UniProt Q9NXA8: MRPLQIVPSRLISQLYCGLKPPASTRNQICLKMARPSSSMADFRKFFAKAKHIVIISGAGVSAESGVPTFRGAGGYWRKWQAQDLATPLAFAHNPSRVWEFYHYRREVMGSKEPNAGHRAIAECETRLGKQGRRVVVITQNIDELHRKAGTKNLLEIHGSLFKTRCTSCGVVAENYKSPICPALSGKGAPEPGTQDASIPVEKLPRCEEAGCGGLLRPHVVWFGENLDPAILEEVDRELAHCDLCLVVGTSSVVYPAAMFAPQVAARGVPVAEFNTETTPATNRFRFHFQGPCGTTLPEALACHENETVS
UniProt P01008, whole entry, looked up: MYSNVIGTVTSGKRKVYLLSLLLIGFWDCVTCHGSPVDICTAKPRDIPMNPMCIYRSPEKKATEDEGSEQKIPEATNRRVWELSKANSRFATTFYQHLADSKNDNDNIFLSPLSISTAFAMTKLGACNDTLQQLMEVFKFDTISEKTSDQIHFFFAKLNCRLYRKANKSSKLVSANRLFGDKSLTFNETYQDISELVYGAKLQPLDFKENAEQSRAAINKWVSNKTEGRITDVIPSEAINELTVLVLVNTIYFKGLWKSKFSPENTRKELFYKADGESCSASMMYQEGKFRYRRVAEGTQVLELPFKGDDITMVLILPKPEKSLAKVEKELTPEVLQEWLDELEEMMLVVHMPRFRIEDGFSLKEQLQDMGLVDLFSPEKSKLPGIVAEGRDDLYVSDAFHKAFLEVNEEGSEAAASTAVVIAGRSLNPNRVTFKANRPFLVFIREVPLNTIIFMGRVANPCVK
UniProt P58004: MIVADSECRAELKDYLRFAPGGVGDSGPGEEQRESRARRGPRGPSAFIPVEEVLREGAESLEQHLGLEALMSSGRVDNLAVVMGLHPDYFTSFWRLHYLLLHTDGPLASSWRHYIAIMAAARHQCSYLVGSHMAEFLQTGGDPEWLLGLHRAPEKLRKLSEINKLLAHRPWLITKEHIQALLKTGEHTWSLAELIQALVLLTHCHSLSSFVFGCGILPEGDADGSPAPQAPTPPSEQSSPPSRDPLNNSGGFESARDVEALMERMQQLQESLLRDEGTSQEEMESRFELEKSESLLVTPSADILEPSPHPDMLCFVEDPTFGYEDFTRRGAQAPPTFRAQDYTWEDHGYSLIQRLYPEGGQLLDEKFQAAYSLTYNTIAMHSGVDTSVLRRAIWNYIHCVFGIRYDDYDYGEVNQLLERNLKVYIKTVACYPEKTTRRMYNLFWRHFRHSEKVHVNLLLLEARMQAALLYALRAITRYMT
UniProt Q01105, whole entry, looked up: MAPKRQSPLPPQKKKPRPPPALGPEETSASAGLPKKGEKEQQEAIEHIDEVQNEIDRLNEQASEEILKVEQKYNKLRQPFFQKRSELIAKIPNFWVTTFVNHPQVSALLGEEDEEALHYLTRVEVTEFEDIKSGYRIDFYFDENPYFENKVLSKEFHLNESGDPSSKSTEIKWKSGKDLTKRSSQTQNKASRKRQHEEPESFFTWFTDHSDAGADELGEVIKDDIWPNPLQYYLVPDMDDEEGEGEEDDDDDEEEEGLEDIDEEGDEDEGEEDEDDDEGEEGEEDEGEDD

Key:
Test in all cases: log2 fold change, soluble protein after heating vs DMSO (PISA); higher = thermal stabilisation; K562 lysate, 10 uM; active = over 0.2 and 3.5 SD of the protein, either way, in both replicates (recomputed)
lapatinib = compound: CS(=O)(=O)CCNCc1ccc(-c2ccc3ncnc(Nc4ccc(OCc5cccc(F)c5)c(Cl)c4)c3c2)o1 [lapatinib]
Method in brief: (§1)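 K562 pellets were dounce-homogenised in PBS pH 7.4 with 1 mM MgCl2, and the crude extract at 1 mg/mL protein was treated with 10 μM compound for 30 min. Aliquots were heated for 3 min across 48°C-58°C, pooled, and brought to 0.5% NP-40 at 4°C; soluble protein was the supernatant after 21,000xg for 90 min. Soluble protein was quantified by TMTpro 16plex LC-MS/MS with channel sums equalised, and reported as log2 fold change in thermal stability against DMSO controls, with values from duplicates.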

pictilisib = compound: CS(=O)(=O)N1CCN(Cc2cc3nc(-c4cccc5[nH]ncc45)nc(N4CCOCC4)c3s2)CC1 [pictilisib]
Method in brief: as §1

crizotinib = compound: C[C@@H](Oc1cc(-c2cnn(C3CCNCC3)c2)cnc1N)c1c(Cl)ccc(F)c1Cl [crizotinib]
Method in brief: as §1

[1] = compound: C[C@H](C1=CC=C(C=C1)C(=O)NC2=C3C=CNC3=NC=C2)N
Method in brief: as §1

duvelisib = compound: C[C@H](Nc1ncnc2nc[nH]c12)c1cc2cccc(Cl)c2c(=O)n1-c1ccccc1 [duvelisib]
Method in brief: as §1

gandotinib = compound: Cc1cc(Nc2cc(CN3CCOCC3)c3nc(C)c(Cc4ccc(Cl)cc4F)n3n2)n[nH]1 [gandotinib]
Method in brief: as §1

tozasertib = compound: Cc1cc(Nc2cc(N3CCN(C)CC3)nc(Sc3ccc(NC(=O)C4CC4)cc3)n2)n[nH]1 [tozasertib]
Method in brief: as §1

doramapimod = compound: Cc1ccc(-n2nc(C(C)(C)C)cc2NC(=O)Nc2ccc(OCCN3CCOCC3)c3ccccc23)cc1 [doramapimod]
Method in brief: as §1

bafetinib = compound: Cc1ccc(NC(=O)c2ccc(CN3CC[C@H](N(C)C)C3)c(C(F)(F)F)c2)cc1Nc1nccc(-c2cncnc2)n1 [bafetinib]
Method in brief: as §1

[2] = compound: Cc1cccc(CC(=O)N2CCc3c2ccc(-c2cn(C)c4ncnc(N)c24)c3F)n1
Method in brief: as §1

Measured: log2 fold change

SH3BP5 (UniProt O60239)
inactive: lapatinib 0.014 | pictilisib 0.014 | crizotinib -0.015 | [1] 0.074 | duvelisib 0.031 | gandotinib -0.002 | tozasertib -0.008 | doramapimod 0.044 | bafetinib -0.101 | [2] -0.046

SERPINH1 (UniProt P50454)
inactive: lapatinib -0.028 | pictilisib -0.002 | crizotinib 0.012 | [1] -0.048 | duvelisib -0.002 | gandotinib 0.032 | tozasertib -0.015 | doramapimod -0.023 | bafetinib -0.002 | [2] 0.004

SLC20A1 (UniProt Q8WUM9)
inactive: lapatinib -0.002 | pictilisib -0.065 | crizotinib -0.009 | [1] 0.016 | duvelisib 0.038 | gandotinib -0.016 | tozasertib -0.006 | doramapimod 0.042 | bafetinib -0.075 | [2] -0.013

SF3B5 (UniProt Q9BWJ5)
inactive: lapatinib -0.006 | pictilisib -0.039 | crizotinib -0.062 | [1] 0.175 | duvelisib -0.012 | gandotinib -0.061 | tozasertib -0.042 | doramapimod -0.003 | bafetinib -0.089 | [2] -0.098

SH3KBP1 (UniProt Q96B97)
inactive: lapatinib -0.041 | pictilisib -0.094 | crizotinib -0.027 | [1] -0.034 | duvelisib -0.04 | gandotinib -0.004 | tozasertib 0.034 | doramapimod -0.03 | bafetinib 0.035 | [2] 0.044

SF3B6 (UniProt Q9Y3B4)
inactive: lapatinib -0.01 | pictilisib -0.083 | crizotinib -0.008 | [1] 0.009 | duvelisib 0.059 | gandotinib -0.069 | tozasertib -0.188 | doramapimod 0.047 | bafetinib -0.009 | [2] -0.058

SLC11A2 isoform 3 (UniProt P49281)
inactive: lapatinib 0 | pictilisib -0.014 | crizotinib -0.004 | [1] -0.052 | duvelisib -0.025 | gandotinib 0.033 | tozasertib -0.08 | doramapimod -0.018 | bafetinib 0.035 | [2] 0.036

SKA3 (UniProt Q8IX90)
inactive: lapatinib 0.009 | pictilisib -0.022 | crizotinib -0.029 | [1] -0.008 | duvelisib -0.022 | gandotinib -0.011 | tozasertib -0.008 | doramapimod 0.002 | bafetinib 0.027 | [2] 0.034

SETMAR (UniProt Q53H47)
inactive: lapatinib -0.015 | pictilisib -0.035 | crizotinib -0.072 | [1] 0.026 | duvelisib 0.003 | gandotinib 0.071 | tozasertib -0.29 | doramapimod 0.012 | bafetinib 0.031 | [2] 0.01

SGF29 (UniProt Q96ES7)
inactive: lapatinib -0.009 | pictilisib -0.003 | crizotinib -0.013 | [1] -0.029 | duvelisib -0.06 | gandotinib 0.037 | tozasertib -0.038 | doramapimod 0.028 | bafetinib 0.011 | [2] -0.001

SH2D2A isoform 2 (UniProt Q9NP31)
inactive: lapatinib 0.102 | pictilisib 0.043 | crizotinib -0.01 | [1] -0.068 | duvelisib 0.154 | gandotinib 0.054 | tozasertib 0.177 | doramapimod -0.102 | bafetinib -0.099 | [2] 0.065

SERF2 (UniProt P84101)
inactive: lapatinib -0.146 | pictilisib -0.033 | crizotinib 0.038 | [1] -0.01 | duvelisib 0.03 | gandotinib 0.029 | tozasertib 0.147 | doramapimod 0.044 | bafetinib 0.011 | [2] 0.088

SKA2 (UniProt Q8WVK7)
inactive: lapatinib 0.005 | pictilisib -0.004 | crizotinib 0.027 | [1] 0.048 | duvelisib -0.004 | gandotinib -0.029 | tozasertib 0.048 | doramapimod -0.09 | bafetinib -0.017 | [2] 0.009

SERPINF1 (UniProt P36955)
inactive: lapatinib -0.044 | pictilisib 0.015 | crizotinib 0.022 | [1] 0.076 | duvelisib -0.046 | gandotinib -0.057 | tozasertib 0.018 | doramapimod -0.013 | bafetinib -0.012 | [2] -0.063

SH3GL3 isoform 3 (UniProt Q99963)
inactive: lapatinib -0.07 | pictilisib -0.087 | crizotinib -0.04 | duvelisib -0.005 | gandotinib 0.326 | tozasertib 0.028 | doramapimod 0.016 | bafetinib -0.147
active: [1] -0.548 | [2] 0.446

Quoted from the results shown (2 entries):
SKA2 (UniProt Q8WVK7)
inactive: lapatinib 0.005 | pictilisib -0.004 | crizotinib 0.027 | [1] 0.048 | duvelisib -0.004 | gandotinib -0.029 | tozasertib 0.048 | doramapimod -0.09 | bafetinib -0.017 | [2] 0.009

SERPINF1 (UniProt P36955)
inactive: lapatinib -0.044 | pictilisib 0.015 | crizotinib 0.022 | [1] 0.076 | duvelisib -0.046 | gandotinib -0.057 | tozasertib 0.018 | doramapimod -0.013 | bafetinib -0.012 | [2] -0.063

Continued:

SH3GL1 (UniProt Q99961)
inactive: lapatinib 0.013 | pictilisib 0.005 | crizotinib -0.017 | [1] 0.028 | duvelisib 0.023 | gandotinib 0.009 | tozasertib 0.013 | doramapimod 0.025 | bafetinib -0.001 | [2] -0.063

SLBP (UniProt Q14493)
inactive: lapatinib 0.024 | pictilisib 0.023 | crizotinib 0.01 | [1] 0.084 | duvelisib -0.025 | gandotinib -0.005 | tozasertib 0.027 | doramapimod 0.03 | bafetinib -0.028 | [2] -0.072

SH3BGRL (UniProt O75368)
inactive: lapatinib 0.008 | pictilisib 0.022 | crizotinib 0.003 | [1] 0.085 | duvelisib -0.003 | gandotinib -0.012 | tozasertib 0.008 | doramapimod 0.003 | bafetinib 0.011 | [2] -0.034

SH3GLB2 (UniProt Q9NR46)
inactive: lapatinib 0.095 | pictilisib 0.02 | crizotinib -0.009 | [1] 0.005 | duvelisib -0.017 | gandotinib 0.027 | tozasertib 0.029 | doramapimod 0.049 | bafetinib -0.054 | [2] -0.006

SERGEF (UniProt Q9UGK8)
inactive: lapatinib -0.013 | pictilisib -0.056 | crizotinib 0.006 | [1] 0.031 | duvelisib -0.036 | gandotinib 0.008 | tozasertib 0.038 | doramapimod -0.028 | bafetinib -0.028 | [2] -0.007

SGPP1 (UniProt Q9BX95)
inactive: lapatinib -0.045 | pictilisib -0.126 | crizotinib 0.115 | [1] 0.106 | duvelisib -0.077 | gandotinib -0.049 | tozasertib 0.001 | doramapimod -0.092 | bafetinib 0.276 | [2] -0.07

SFPQ (UniProt P23246)
inactive: lapatinib -0.018 | pictilisib -0.019 | crizotinib 0.057 | [1] 0.021 | duvelisib -0.019 | gandotinib -0.041 | tozasertib -0.012 | doramapimod 0.006 | bafetinib -0.015 | [2] -0.013

SETD2 (UniProt Q9BYW2)
inactive: lapatinib -0.01 | pictilisib 0.028 | crizotinib -0.002 | [1] -0.045 | duvelisib 0.004 | gandotinib 0.036 | tozasertib -0.011 | doramapimod 0.024 | bafetinib -0.038 | [2] 0.079

SIRT5 (UniProt Q9NXA8)
inactive: lapatinib 0.02 | pictilisib -0.012 | crizotinib -0.004 | [1] -0.006 | duvelisib -0.023 | gandotinib 0.007 | tozasertib 0.046 | doramapimod -0.03 | bafetinib -0.057 | [2] -0.146

SERPINC1 (UniProt P01008)
inactive: lapatinib 0.011 | pictilisib -0.182 | crizotinib 0.054 | [1] -0.164 | duvelisib -0.012 | gandotinib 0.188 | tozasertib 0.049 | doramapimod -0.055 | bafetinib 0.008 | [2] 0.093

SLC16A1 (UniProt P53985)
inactive: lapatinib -0.009 | pictilisib 0.019 | crizotinib 0.006 | duvelisib -0.011 | gandotinib 0.22 | tozasertib -0.008 | doramapimod -0.017 | bafetinib -0.041
active: [1] -0.341 | [2] 0.246

SERPINI1 (UniProt Q99574)
inactive: lapatinib 0.034 | pictilisib -0.061 | crizotinib 0.001 | [1] 0.036 | duvelisib 0.007 | gandotinib 0.055 | tozasertib 0.014 | doramapimod -0.042 | bafetinib -0.065 | [2] 0.04

SESN2 (UniProt P58004)
inactive: lapatinib -0.085 | pictilisib -0.047 | crizotinib -0.042 | [1] 0.041 | duvelisib 0.047 | gandotinib 0.038 | tozasertib -0.006 | doramapimod -0.031 | bafetinib -0.15 | [2] 0.003

SLC12A4 (UniProt Q9UP95)
inactive: lapatinib -0.011 | pictilisib -0.035 | crizotinib -0.061 | [1] 0.035 | duvelisib -0.037 | gandotinib -0.035 | tozasertib 0.001 | doramapimod 0.068 | bafetinib 0.046 | [2] -0.04

SET isoform 2 (UniProt Q01105)
inactive: lapatinib 0 | pictilisib 0.041 | crizotinib 0.006 | [1] 0.002 | duvelisib 0.033 | gandotinib 0.046 | tozasertib -0.01 | doramapimod -0.011 | bafetinib 0.002 | [2] -0.043
